Laboratory results published in publication PMC5805366.
These are yes or no findings as the source states them, for the method shown. In cells and extracts the contact can be indirect. Some results given as binding are weak or reduced against the parent protein; the word gives no strength.

Legend:
Details in all cases: remark: other sources report otherwise
[1] = target: T1, endogenous human Nmi (human (endogenous in U251 and human foreskin fibroblasts)), Q13287; assay: co-IP; IFN-γ-treated human foreskin fibroblasts infected with ΔUL23 or UL23stop
T1 chain: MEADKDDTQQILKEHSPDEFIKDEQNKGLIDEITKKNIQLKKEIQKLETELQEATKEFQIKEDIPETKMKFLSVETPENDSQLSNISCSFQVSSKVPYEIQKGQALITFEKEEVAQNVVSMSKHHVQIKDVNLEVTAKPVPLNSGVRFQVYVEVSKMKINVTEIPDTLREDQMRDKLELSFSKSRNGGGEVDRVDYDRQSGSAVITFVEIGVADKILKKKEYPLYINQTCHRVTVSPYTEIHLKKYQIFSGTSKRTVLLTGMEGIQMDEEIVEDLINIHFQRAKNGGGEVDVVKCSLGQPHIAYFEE

[2] = target: T1, endogenous human Nmi (human (endogenous …)); assay: co-IP; U251 and U251-C cells (also cells with the empty vector pCMV-FLAG), no UL23, treated with IFN-γ (1000 U/ml) for 12 h; IP with anti-UL23, anti-Nmi or anti-STAT1
[3] = target: T1, endogenous human Nmi (human (endogenous …)); assay: co-IP; IFN-γ-treated U251 cells infected with the UL23-deficient mutants ΔUL23 or UL23stop (MOI = 1), lysates at 24-48 h postinfection; IP with anti-UL23, anti-Nmi or anti-STAT1

Measured: binding

B1: endogenous human STAT1, P42224 1-750 (protein)
chain: MSQWYELQQLDSKFLEQVHQLYDDSFPMEIRQYLAQWLEKQDWEHAANDVSFATIRFHDLLSQLDDQYSRFSLENNFLLQHNIRKSKRNLQDNFQEDPIQMSMIIYSCLKEERKILENAQRFNQAQSGNIQSTVMLDKQKELDSKVRNVKDKVMCIEHEIKSLEDLQDEYDFKCKTLQNREHETNGVAKSDQKQEQLLLKKMYLMLDNKRKEVVHKIIELLNVTELTQNALINDELVEWKRRQQSACIGGPPNACLDQLQNWFTIVAESLQQVRQQLKKLEELEQKYTYEHDPITKNKQVLWDRTFSLFQQLIQSSFVVERQPCMPTHPQRPLVLKTGVQFTVKLRLLVKLQELNYNLKVKVLFDKDVNERNTVKGFRKFNILGTHTKVMNMEESTNGSLAAEFRHLQLKEQKNAGTRTNEGPLIVTEELHSLSFETQLCQPGLVIDLETTSLPVVVISNVSQLPSGWASILWYNMLVAEPRNLSFFLTPPCARWAQLSEVLSWQFSSVTKRGLNVDQLNMLGEKLLGPNASPDGLIPWTRFCKENINDKNFPFWLWIESILELIKKHLLPLWNDGCIMGFISKERERALLKDQQPGTFLLRFSESSREGAITFTWVERSQNGGEPDFHAVEPYTKKELSAVTFPDIIRNYKVMAAENIPENPLKYLYPNIDKDHAFGKYYSRPKEAPEPMELDGPKGTGYIKTELISVSEVHPSRLQTTDNLLPMSPEEFDEVSRIVGSVEFDSMMNTV
binds: all assays above
